Values from PubChem BioAssay AID1259254 (NCATS, 2017)
This is one part, drawn at random, of about 59,000 reagents. Of all reagents, about 1,550 (2.6%) got an active call. 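G2 share is only a proxy for re-replication; each gene was hit by three separate siRNAs, and active genes were retested.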 The numbers tell different reagents against one gene apart. Further read-outs or replicates are left out here. The record does not give: the amount of reagent.

Aim: 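Gene knock-downs that lead to re-replication, shown by excess G2 DNA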 (primary screen)
Cells: human HCT116 colorectal cancer cells
Reagent: single siRNA against human genes
Timing: 3 days
Detection: 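Nuclei stained with Hoechst and imaged; cell-cycle phase assigned by DNA content; G2 share scaled per plate, non-targeting siRNA 0%, GMNN siRNA 100%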
Scale: G2 robust z-score: higher = more G2 cells, more excess DNA replication
Hit rule: 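Active siRNAs have a G2 robust z of 5 or more median absolute deviations over the median, which in these data means about 38% or higher of GMNN control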

gene knocked down | reagent | G2 robust z-score | Call
SEC14L6 (GeneID 730005) | 1 | -0.416 | inactive
SEC14L6 (GeneID 730005) | 2 | -0.213 | inactive
SEC14L6 (GeneID 730005) | 3 | 5.4 | active
OGDH (GeneID 4967) | 1 | -1.22 | inactive
OGDH (GeneID 4967) | 2 | -0.796 | inactive
OGDH (GeneID 4967) | 3 | -0.825 | inactive
NOB1 (GeneID 28987) | 1 | -0.234 | inactive
NOB1 (GeneID 28987) | 2 | 0.0691 | inactive
NOB1 (GeneID 28987) | 3 | 2.93 | inactive
ERH (GeneID 2079) | 1 | 0.506 | inactive
ERH (GeneID 2079) | 2 | 4.34 | inactive
ERH (GeneID 2079) | 3 | 1.54 | inactive
IFNL3 (GeneID 282617) | 1 | 0.639 | inactive
IFNL3 (GeneID 282617) | 2 | -0.431 | inactive
IFNL3 (GeneID 282617) | 3 | 2.62 | inactive
RSU1 (GeneID 6251) | 1 | 3.17 | inactive
RSU1 (GeneID 6251) | 2 | -0.0221 | inactive
RSU1 (GeneID 6251) | 3 | 2.92 | inactive
DLC1 (GeneID 10395) | 1 | 0.189 | inactive
DLC1 (GeneID 10395) | 2 | -0.71 | inactive
DLC1 (GeneID 10395) | 3 | 0.485 | inactive
SLC15A5 (GeneID 729025) | 1 | -0.488 | inactive
SLC15A5 (GeneID 729025) | 2 | 4.52 | inactive
SLC15A5 (GeneID 729025) | 3 | 4.32 | inactive
LRCH3 (GeneID 84859) | 1 | 1.21 | inactive
LRCH3 (GeneID 84859) | 2 | -0.0906 | inactive
LRCH3 (GeneID 84859) | 3 | 0.914 | inactive
COMMD4 (GeneID 54939) | 1 | 1.21 | inactive
COMMD4 (GeneID 54939) | 2 | 0.703 | inactive
COMMD4 (GeneID 54939) | 3 | 1.51 | inactive
GLDC (GeneID 2731) | 1 | -1.46 | inactive
GLDC (GeneID 2731) | 2 | 0.868 | inactive
GLDC (GeneID 2731) | 3 | 0.206 | inactive
GJB3 (GeneID 2707) | 1 | 0.225 | inactive
GJB3 (GeneID 2707) | 2 | 0.145 | inactive
GJB3 (GeneID 2707) | 3 | 0.0184 | inactive
ZNF385A (GeneID 25946) | 1 | 0.0725 | inactive
ZNF385A (GeneID 25946) | 2 | 0.886 | inactive
ZNF385A (GeneID 25946) | 3 | 0.0122 | inactive
CPA3 (GeneID 1359) | 1 | -0.664 | inactive
CPA3 (GeneID 1359) | 2 | 0.399 | inactive
CPA3 (GeneID 1359) | 3 | 3.42 | inactive
BLM (GeneID 641) | 1 | 0.843 | inactive
BLM (GeneID 641) | 2 | 0.182 | inactive
BLM (GeneID 641) | 3 | -0.33 | inactive

Reprinted from the listing (11 entries):
gene knocked down | reagent | G2 robust z-score | Call
GLDC (GeneID 2731) | 2 | 0.868 | inactive
GLDC (GeneID 2731) | 3 | 0.206 | inactive
GJB3 (GeneID 2707) | 1 | 0.225 | inactive
GJB3 (GeneID 2707) | 2 | 0.145 | inactive
GJB3 (GeneID 2707) | 3 | 0.0184 | inactive
ZNF385A (GeneID 25946) | 1 | 0.0725 | inactive
ZNF385A (GeneID 25946) | 2 | 0.886 | inactive
ZNF385A (GeneID 25946) | 3 | 0.0122 | inactive
CPA3 (GeneID 1359) | 1 | -0.664 | inactive
CPA3 (GeneID 1359) | 2 | 0.399 | inactive
CPA3 (GeneID 1359) | 3 | 3.42 | inactive

More reagents follow:
gene knocked down | reagent | G2 robust z-score | Call
TRIM4 (GeneID 89122) | 1 | -1.42 | inactive
TRIM4 (GeneID 89122) | 2 | 0.401 | inactive
TRIM4 (GeneID 89122) | 3 | -0.0635 | inactive
SKA1 (GeneID 220134) | 1 | 1.45 | inactive
SKA1 (GeneID 220134) | 2 | 3.62 | inactive
SKA1 (GeneID 220134) | 3 | 0.0626 | inactive
GDF2 (GeneID 2658) | 1 | 2.23 | inactive
GDF2 (GeneID 2658) | 2 | -0.0726 | inactive
GDF2 (GeneID 2658) | 3 | 3.75 | inactive
RNF181 (GeneID 51255) | 1 | 1.18 | inactive
RNF181 (GeneID 51255) | 2 | 0.107 | inactive
RNF181 (GeneID 51255) | 3 | 0.835 | inactive
SAP30BP (GeneID 29115) | 1 | -0.78 | inactive
SAP30BP (GeneID 29115) | 2 | -1.22 | inactive
SAP30BP (GeneID 29115) | 3 | 0.00281 | inactive
PFKFB1 (GeneID 5207) | 1 | -0.535 | inactive
PFKFB1 (GeneID 5207) | 2 | 4.39 | inactive
PFKFB1 (GeneID 5207) | 3 | 0.468 | inactive
YOD1 (GeneID 55432) | 1 | -0.612 | inactive
YOD1 (GeneID 55432) | 2 | 0.218 | inactive
YOD1 (GeneID 55432) | 3 | 1.34 | inactive
PLK2 (GeneID 10769) | 1 | 0.034 | inactive
PLK2 (GeneID 10769) | 2 | -1.03 | inactive
PLK2 (GeneID 10769) | 3 | 0.147 | inactive
